# Primary screen of a compound library

Data taken from ChEMBL document CHEMBL3988442, “University of Dundee, Small-Polar-MMV Screening Library” (2021).

Mtb growth Cornell: 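Whole-cell assay for inhibitors of Mycobacterium tuberculosis growth, labelled Cornell in the record; the read-out is not stated. The concentration is filed as 10 mM, unlikely as a test dose, so the dose is not known. Higher means stronger inhibition (inferred from two other growth screens of the library). Size under these conditions: about 53,000 compounds, about 900 of them at 50% or above in at least one test.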
Mtb heat-shock: 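Assay on Mycobacterium tuberculosis, filed only as a heat shock assay from Cornell; the read-out is not stated. The concentration is filed as 10 mM, unlikely as a test dose, so the dose is not known. The record gives no direction; compounds that gave an IC50 in retests scored well above the rest, so higher reads as stronger inhibition. About 69,000 compounds were tested under these conditions; 1.4% (about 930) showed 50% or more at least once.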

Values are the deposited “Percent Effect”, in %. The controls that fix the scale are not given in the record; negative values are as filed. Compounds were drawn at random from those tested, without regard to their results. A dash means the value is not listed here; it may have been measured.

| # | Compound | Mtb growth Cornell | Mtb heat-shock |
|---|---|---|---|
| 1 | `Cc1cc2n(n1)CCN(c1nc(N(C)C)nc3c1CCNC3)C2` | - | 7.698% |
| 2 | `CCOc1ccc(C(=O)CCC(=O)N(C)Cc2snnc2C)cc1C` | 19.82% | -42.13% |
| 3 | `O=C(CC1CCCO1)Nc1cccc(N2CCN(CC3CC3)CC2)c1` (centres unmarked) | 23.13% | 3.616% |
| 4 | `CCc1n[nH]c(C2CN(C(=O)CCCn3cccn3)CCO2)n1` (centres unmarked) | 14.53% | -29.54% |
| 5 | `CC(C(=O)N1CCCN(c2ncccc2C#N)CC1)n1cncn1` (centres unmarked) | -4.609% | -7.244% |
| 6 | `COc1cccc2c1OCC(NCc1cnn(-c3ccccc3F)c1)C2` (centres unmarked) | 12.1% | -29.19% |
| 7 | `Cc1cccc(N2CCN(CC(=O)N3CCCC(N(C)C)CC3)CC2)c1` (centres unmarked) | -30.77% | 10.05% |
| 8 | `COc1ccc(N2Cc3nc(=O)n(Cc4cccc(F)c4)n3C2=O)cc1` | -13.61% | 24.72% |
| 9 | `COCc1nc(CNc2cccc(-c3csc(C)n3)c2)cs1` | 38.18% | 5.684% |
| 10 | `O=C(O)C(F)(F)F.O=C(O)C(F)(F)F.[H][C@@]12C[C@@H](Oc3cccc(F)c3)CN1CCN(C(=O)c1ccc(C)nc1)C2` | 22.53% | -40.6% |
| 11 | `Cc1ncnc2c1CCN(C(=O)Cc1ccccn1)CC2.O=C(O)C(F)(F)F` | -13.74% | -27.29% |
| 12 | `CC(=O)Nc1cc(CCC2CCN(C(=O)c3ccccn3)CC2)ccn1` | 2.648% | 13.37% |
| 13 | `COc1ccsc1C(=O)NCCNc1ccccc1` | 4.493% | -5.187% |
| 14 | `CCc1cc(NC(=O)C2CCCN(C(=O)NCC(C)C)C2)[nH]n1` (centres unmarked) | 1.368% | -1.724% |
| 15 | `c1cc2cc[nH]c2c(CC2CN(Cc3cncs3)C2)n1` | 12.56% | -0.8333% |
| 16 | `Cc1ccc(S(=O)(=O)N2CCOc3ccccc32)cc1C(=O)O` | 5.635% | 46.98% |
| 17 | `NC(=O)CCCNC(=O)Cc1cccc(I)c1` | -9.017% | -24.7% |
| 18 | `Cc1cc(Cn2cncc(Br)c2=O)on1` | -63.26% | 5.804% |
| 19 | `Cc1cc(NC(=O)N(C)CCN2CCN(c3ccccc3)CC2)on1` | 1.742% | -4.521% |
| 20 | `O=C(O)C(F)(F)F.[H][C@@]12CCN(c3nnc(C)s3)C[C@@]1([H])O[C@@H](c1nc(C)no1)C2` | 0.406% | 1.861% |
| 21 | `COc1cccc(CNC(C)Cn2cccn2)c1OC.Cl` (centres unmarked) | 8.071% | -11.24% |
| 22 | `O=C(CN1CC(n2cccn2)C1)NCCCc1ccccc1` | -1.997% | 1.458% |
| 23 | `CC(C)CCN1CCNC(=O)C1CC(=O)NCCc1cc(O)ncn1` (centres unmarked) | 19.18% | 2.377% |
| 24 | `CN(Cc1ccc(N2CCCCC2)cc1)Cc1noc(C(C)(C)C)n1` | 20.38% | -24.85% |
| 25 | `CCOc1cccc(CNc2ccccc2OC)c1O` | 15.63% | 12.74% |
| 26 | `Cc1nc(CN2CCCC2c2ccsc2)nc2ccccc12` (centres unmarked) | - | 40.46% |
| 27 | `O=C(O)C(F)(F)F.O=C(O)C(F)(F)F.O=C(O)C(F)(F)F.O=C(O)C(F)(F)F.c1ccc(CN2CCc3c(COCc4ccncc4)cncc3C2)nc1` | 1.036% | -9.684% |
| 28 | `Cc1nn(C)cc1Cn1cc(Cl)c(N)n1` | - | -32.92% |
| 29 | `CC(=O)NCCCNC(=O)N1CCN(c2cc(F)ccc2F)CC1` | -21.64% | -13.6% |
| 30 | `Cc1ccc(C)c(NC(=O)N2CCC3(CC2)NC(=O)CC3C(=O)O)c1` (centres unmarked) | - | 0.2818% |
| 31 | `O=C(Cc1ccccc1F)N1CCC[C@@H]1Cn1c(=O)oc2ccccc21` | -17.95% | -8.189% |
| 32 | `Cc1ncc2c(n1)CN(Cc1nc(-c3ccco3)oc1C)CC2` | 20.81% | 22.7% |
| 33 | `CC(C#N)(NC(=O)Cn1cc(I)cn1)C1CC1` (centres unmarked) | - | -5.693% |
| 34 | `Cc1cnn(CCNC(C)C(=O)Nc2ccc(Cl)cn2)c1` (centres unmarked) | - | 20.51% |
| 35 | `CCNc1cc2c(nn1)CCN(C(=O)CCc1c(C)noc1Cl)C2` | -7.184% | 18.36% |
| 36 | `O=C(Nc1ccc(Cl)cc1C(=O)NCCN1CCOCC1)c1ccco1` | 1.603% | -10.6% |
| 37 | `Cc1noc(C(C)N2CCN(Cc3nc(C)c(C)o3)CC2)n1` (centres unmarked) | - | 22.48% |
| 38 | `COc1ccccc1CN1CCCC(Cc2nccnc2N)C1` (centres unmarked) | -6.566% | 2.221% |
| 39 | `O=S(=O)(Cc1c(F)cccc1F)NCCOc1cccnc1` | -22.95% | -30.67% |
| 40 | `Cc1nc(O)c2nnn(C[C@H]3CCCN3C(=O)c3cccc(F)c3)c2n1` | 5.381% | 4.1% |
| 41 | `Cc1cc(C)n(C2CCCN(C(=O)c3ccn(C)c(=O)c3)C2)n1` (centres unmarked) | 16.22% | -8.476% |
| 42 | `CC(C)(C)n1cc(C(=O)N2CCN(Cc3ccccc3F)CC2)cn1` | - | -6.218% |
| 43 | `COc1ccccc1C(=O)Nc1c(F)c(C(=O)NCCC(C)C)nn1C` | 0.4838% | -19.76% |
| 44 | `Cc1ccc(Cc2sc(NC(=O)C(C)S(C)(=O)=O)nc2C)cc1` (centres unmarked) | 12.33% | -16.98% |
| 45 | `CCOc1ccc(NC(=O)Nc2cc(N3CCCCC3)ncn2)cc1` | -12.57% | 9.951% |
| 46 | `Cc1noc(CN2CCN(c3cncc(Cl)n3)CC2)n1` | 21.76% | -4.188% |
| 47 | `Cc1cccc(OCCN2CCCC(c3cc(C(N)=O)[nH]n3)C2)c1` (centres unmarked) | 2.192% | -7.517% |
| 48 | `Cc1cnn(C2CCCN(C(=O)c3ccc(N4CCCC4)nn3)C2)c1` (centres unmarked) | -40.26% | -5.398% |
| 49 | `OC(CN1CCN(CC2CCCCC2)CC1)c1ccccc1` (centres unmarked) | 2.655% | 50.33% |
| 50 | `CCOc1cc(C(=O)N2CCCC(c3noc(C)n3)C2)ccn1` (centres unmarked) | 32.46% | 16.52% |
| 51 | `COc1cc(CCC(=O)N2CCC(c3cc4ncccc4[nH]3)CC2)on1` | 21.51% | -10.64% |
| 52 | `Cn1ncnc1NS(=O)(=O)c1ccc(F)cc1Cl` | 7.002% | 14% |
| 53 | `Cn1ccc(C(=O)Nc2nccn2Cc2ccccc2Cl)cc1=O` | 51.57% | 54.71% |
| 54 | `COc1cc(C(=O)N2CC3(CCNCC3)c3cc(Cl)ccc32)ccn1.O=C(O)C(F)(F)F.O=C(O)C(F)(F)F` | 15.78% | 14.7% |
| 55 | `Cc1cnn(C2CN(CC(=O)NCCc3ccccc3)C2)c1` | 32.34% | -13.63% |
| 56 | `CN(C)C(C(=O)NCC1(O)CCCCC1)c1c(F)cccc1F` (centres unmarked) | -0.5092% | -1.258% |
| 57 | `O=C(O)C(F)(F)F.[H][C@@]12CN(Cc3cccs3)C[C@]1([H])C(=O)N(c1cncnc1)C2` | 6.61% | 2.651% |
| 58 | `COc1ccncc1NCc1ccsc1` | -60.05% | -12.4% |
| 59 | `Cc1cc(=O)[nH]c(SCC(=O)N(C)CC2Cc3ccccc3CN2C)n1` (centres unmarked) | 5.5% | -4.706% |
| 60 | `CC1c2cccn2CCN1C(=O)CCCc1nc(-c2ccco2)no1` (centres unmarked) | 8.285% | 6.164% |
| 61 | `CN1CCCC2(CCN(C(=O)CCn3cncn3)C2)C1=O` (centres unmarked) | 7.943% | 2.803% |
| 62 | `Cc1cc(C)nc(NC2CC(=O)N(C)C2)n1` (centres unmarked) | - | -114.1% |
| 63 | `O=C(C1CCOC1)N1CCC2(CC1)COCCN(Cc1ccncc1)C2.O=C(O)C(F)(F)F.O=C(O)C(F)(F)F` (centres unmarked) | 13.62% | -0.6323% |
| 64 | `CCN(Cc1ccoc1)C(=O)NC1CCN(CC2CCCC2)CC1` | 20.6% | 18.48% |
| 65 | `[H][C@@]12CS(=O)(=O)C[C@]1([H])N(Cc1cnn(-c3ccccc3Cl)c1)CCN2C` | 19.49% | -18.56% |

Repeated from the top, 4 entries:

{"compound": "Cc1cc2n(n1)CCN(c1nc(N(C)C)nc3c1CCNC3)C2", "Mtb heat-shock": 7.698}
{"compound": "CCOc1ccc(C(=O)CCC(=O)N(C)Cc2snnc2C)cc1C", "Mtb growth Cornell": 19.82, "Mtb heat-shock": -42.13}
{"compound": "O=C(CC1CCCO1)Nc1cccc(N2CCN(CC3CC3)CC2)c1", "stereo": "centres unmarked", "Mtb growth Cornell": 23.13, "Mtb heat-shock": 3.616}
{"compound": "CCc1n[nH]c(C2CN(C(=O)CCCn3cccn3)CCO2)n1", "stereo": "centres unmarked", "Mtb growth Cornell": 14.53, "Mtb heat-shock": -29.54}